# Data source: PubChem BioAssay AID652259 (Drosophila RNAi Screening Center, 2013)
# Purpose: 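Knock-downs that push a Wingless-driven reporter up or down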 (primary screen)
# Cells: Drosophila clone 8 imaginal disc epithelial cells
# Reagent: long dsRNA against Drosophila genes
# Challenge: pathway stimulated by co-transfected Wingless expression plasmid
# Measurement: 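Firefly luciferase from a tcf-site Wingless reporter, measured alongside co-transfected Renilla luciferase that tracks transfection; pathway stimulated by a Wingless plasmid; the firefly-to-Renilla ratio is not deposited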
# Reading the numbers: firefly reporter light: higher = more Wg reporter light, before normalisation; Renilla control light: higher = more transfected or surviving cells
# Rule for the call: 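Strong candidates differ from their plate mean by at least two out of four per-plate statistical tests; weak candidates meet just one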
# Calls: active = candidate regulator (raises or lowers reporter); inactive = not a candidate
# The screen tested about 22,000 reagents; shown is a random part of those that have a named target and a result. In the full data, 233 (1.1%) are marked active. 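Light values are raw, unnormalised plate reads; the ratio scores behind the reporter calls were not deposited.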 A plus sign joins genes that one reagent is predicted to hit. The record does not give: the amount of reagent, the time to read-out, the dose of the treatment.
target gene,dsRNA,"reporter change call, replicate 1","firefly reporter light, replicate 1","firefly reporter light, replicate 2","Renilla control light, replicate 1","Renilla control light, replicate 2",activity call
HP1D3csd,DRSC19548,,17506,,9780,,inactive
CG10466,DRSC02060,,3732,10315,845,4235,inactive
Surf1,DRSC11295,,1192,7157,678,2608,inactive
Surf1,DRSC11394,,7195,,3607,,inactive
Rab23,DRSC12305,,12337,,3136,,inactive
Alg10,DRSC10892,,5282,,2058,,inactive
Hr83,DRSC12521,,14138,,3852,,inactive
CG7881,DRSC04898,,1849,7394,611,1896,inactive
SmD1,DRSC09800,,6522,,2577,,inactive
Pcyt2,DRSC08531,,19832,,6784,,inactive
CG34217,DRSC05083,,16052,,6247,,inactive
Gr22f,DRSC00076,,28337,,12274,,inactive
Ttc26,DRSC15591,,3573,,1856,,inactive
CG6912,DRSC16132,,15491,,4390,,inactive
galla-2,DRSC10936,,7600,,4416,,inactive
galla-2,DRSC21949,,5.30e5,5.34e5,2.19e5,2.20e5,inactive
Miga,DRSC17821,,22347,,11291,,inactive
Gr64b + Gr64c,DRSC08444,,7593,,3434,,inactive
Gr64b + Gr64c,DRSC08445,,5760,,2310,,inactive
CG13369,DRSC18481,,17420,,13988,,inactive
CG16800,DRSC02518,,3101,8205,1317,4003,inactive
CG31415,DRSC22409,,5.48e5,5.48e5,1.97e5,1.80e5,inactive
RpS27,DRSC14244,,20720,,16012,,inactive
CG9799,DRSC16567,,3600,,1661,,inactive
salm,DRSC03606,,2992,6171,812,3846,inactive
CG10300,DRSC14225,,12728,,10610,,inactive
Argk1,DRSC08959,,3915,,1720,,inactive
Argk1,DRSC09668,,2224,7121,2124,4069,inactive
Argk1,DRSC10460,,5152,,1829,,inactive
Argk1,DRSC21558,,5.02e5,4.77e5,1.93e5,1.56e5,inactive
Argk1,DRSC22665,,5.15e5,5.16e5,2.24e5,2.01e5,inactive
CG1545,DRSC21532,,3.69e5,3.97e5,1.75e5,1.62e5,inactive
cona,DRSC16281,,17219,,2405,,inactive
Oatp58Dc,DRSC04363,,7926,,2534,,inactive
Trp1,DRSC03465,,5093,7053,976,3188,inactive
COX4L,DRSC04841,,1688,7443,608,2740,inactive
CG14974,DRSC08433,,7490,,2700,,inactive
Srrm1,DRSC09835,,7139,,2832,,inactive
larp,DRSC14728,,9984,,3632,,inactive
larp,DRSC16984,,5674,,2928,,inactive
larp,DRSC21856,,4.95e5,5.73e5,1.89e5,2.23e5,inactive
Snmp2,DRSC10228,,2728,7866,1897,3889,inactive
Snmp2,DRSC10843,,1408,5594,1335,2100,inactive
Qsox4,DRSC14224,,2426,4396,1305,1731,inactive
Dro,DRSC07406,,7201,,3520,,inactive
Rpn10,DRSC11876,,14421,,5227,,inactive
Cpr76Bd,DRSC11063,,15767,,5464,,inactive
RpL22,DRSC18707,,28000,,18409,,inactive
RpL22,DRSC22819,,4.22e5,4.48e5,1.41e5,1.74e5,inactive
BHD,DRSC11017,,10598,,4249,,inactive
BHD,DRSC22833,,5.00e5,4.62e5,1.77e5,2.02e5,inactive
AOX4,DRSC15337,,13248,,2423,,inactive
VhaM9.7-d,DRSC15028,,9856,,2887,,inactive
Ir48c,DRSC06154,,4437,,1617,,inactive
nocte,DRSC18123,Wg reporter activity raised,20138,29979,827,1686,active
Pcif1,DRSC11655,,5664,,2050,,inactive
CG1806,DRSC19787,,2064,4361,743,1756,inactive
CR12842,DRSC06188,,3378,4448,752,2183,inactive
betaTub97EF,DRSC15666,,9319,,3424,,inactive
betaTub97EF,DRSC15667,,8343,,3458,,inactive
betaTub97EF,DRSC15668,,9724,,3969,,inactive
CG4972,DRSC02798,,2752,6522,663,2544,inactive
Actbeta,DRSC17185,,4381,,1766,,inactive
Actbeta,DRSC17217,,17094,,11573,,inactive
CG14434,DRSC17927,,18050,,6016,,inactive
CG16965,DRSC02547,,2587,6704,1018,2941,inactive
twf,DRSC15466,,5464,,1811,,inactive
Cul1,DRSC07645,,11212,,2413,,inactive
mys,DRSC18799,,11792,,6953,,inactive
CG13367,DRSC18485,,28456,,15917,,inactive
CG13367,DRSC18486,,32064,,16912,,inactive
LSm7,DRSC02251,,3040,9474,743,3241,inactive
Sp7,DRSC15461,,17552,,4192,,inactive

Individual results from the entries so far.
Trp1 [DRSC03465], activity call = inactive
CG13367 [DRSC18485], Renilla control light, replicate 1 → 15917
For “activity call”, Ir48c [DRSC06154] shows inactive
Value of RpL22 [DRSC18707] under “activity call”: inactive
